Results published in publication PMC12443605.
Results are given in words; binding and its absence hold for the method and conditions named. In cells and extracts the contact can be indirect. Some results given as binding are weak or reduced against the parent protein; the word gives no strength.

Chains of the proteins cited; added tags and fusions are not shown.
UniProt Q12929: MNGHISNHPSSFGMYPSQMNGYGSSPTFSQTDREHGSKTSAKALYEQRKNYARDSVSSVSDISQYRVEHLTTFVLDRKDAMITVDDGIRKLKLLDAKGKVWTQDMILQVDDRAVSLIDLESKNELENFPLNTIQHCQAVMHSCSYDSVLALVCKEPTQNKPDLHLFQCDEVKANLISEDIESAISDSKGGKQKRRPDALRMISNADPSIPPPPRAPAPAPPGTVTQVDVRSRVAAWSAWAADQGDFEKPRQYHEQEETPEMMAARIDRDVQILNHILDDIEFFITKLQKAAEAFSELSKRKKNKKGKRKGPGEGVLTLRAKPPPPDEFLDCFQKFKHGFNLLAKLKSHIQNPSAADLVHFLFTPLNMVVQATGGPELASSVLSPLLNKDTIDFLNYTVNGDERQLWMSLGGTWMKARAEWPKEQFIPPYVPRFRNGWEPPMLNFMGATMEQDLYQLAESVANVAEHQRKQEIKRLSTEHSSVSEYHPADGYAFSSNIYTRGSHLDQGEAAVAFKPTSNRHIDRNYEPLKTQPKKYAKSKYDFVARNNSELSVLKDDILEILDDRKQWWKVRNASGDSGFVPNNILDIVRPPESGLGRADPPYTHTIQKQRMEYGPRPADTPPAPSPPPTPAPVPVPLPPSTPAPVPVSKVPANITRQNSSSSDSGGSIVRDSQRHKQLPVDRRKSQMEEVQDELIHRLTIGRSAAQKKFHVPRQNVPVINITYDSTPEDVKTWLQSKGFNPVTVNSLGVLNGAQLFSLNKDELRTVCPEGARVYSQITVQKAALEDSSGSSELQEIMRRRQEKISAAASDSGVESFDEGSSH

Biological target: T1, USP4 (human (endogenous in HEK293)) (UniProt Q13107)
T1 sequence: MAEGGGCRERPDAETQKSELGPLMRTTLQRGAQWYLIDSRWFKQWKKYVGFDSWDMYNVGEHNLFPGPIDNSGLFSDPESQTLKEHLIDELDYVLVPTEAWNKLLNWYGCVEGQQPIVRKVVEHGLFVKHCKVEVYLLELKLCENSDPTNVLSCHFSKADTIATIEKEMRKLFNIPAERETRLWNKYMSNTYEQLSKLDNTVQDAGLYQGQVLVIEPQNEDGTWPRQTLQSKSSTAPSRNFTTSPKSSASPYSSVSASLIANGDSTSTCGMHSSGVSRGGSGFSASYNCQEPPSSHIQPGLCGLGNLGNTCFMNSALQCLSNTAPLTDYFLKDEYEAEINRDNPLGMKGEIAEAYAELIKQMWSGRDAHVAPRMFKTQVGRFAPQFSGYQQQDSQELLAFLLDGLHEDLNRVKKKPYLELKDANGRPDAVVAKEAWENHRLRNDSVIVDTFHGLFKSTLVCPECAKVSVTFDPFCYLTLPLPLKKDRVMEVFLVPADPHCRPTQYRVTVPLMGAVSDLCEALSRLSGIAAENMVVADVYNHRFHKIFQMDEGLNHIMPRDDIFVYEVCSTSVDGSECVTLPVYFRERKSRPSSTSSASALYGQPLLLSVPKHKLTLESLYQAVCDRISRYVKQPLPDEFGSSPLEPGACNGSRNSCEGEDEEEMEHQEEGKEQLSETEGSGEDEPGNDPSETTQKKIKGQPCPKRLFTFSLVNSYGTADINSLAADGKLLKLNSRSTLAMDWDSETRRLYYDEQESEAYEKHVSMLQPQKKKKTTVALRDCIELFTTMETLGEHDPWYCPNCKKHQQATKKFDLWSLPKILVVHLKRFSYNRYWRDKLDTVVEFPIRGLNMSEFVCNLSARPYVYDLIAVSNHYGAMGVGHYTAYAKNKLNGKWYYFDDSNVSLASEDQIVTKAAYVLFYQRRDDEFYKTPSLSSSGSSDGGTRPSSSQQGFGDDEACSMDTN
Assay: co-IP; HEK293 lysate (50 mM Tris-HCl pH 6.7, 150 mM NaCl, 1% NP40, 0.25% sodium deoxycholate, 1 mM EDTA) incubated with anti-USP4 antibody or control normal rabbit IgG, µMACS MicroBeads and columns; western blot with antibodies to USP4 and EPS8

- binding: binds
Substance: EPS8 (from UniProt Q12929 1-822)
